{"source": "patent US6096710", "about": "(dated 2000)", "key": {"[1]": {"assay": "general procedure: Boc solid-phase peptide synthesis; 4-methylbenzhydrylamine (MBHA) resin, 200-400 mesh, 1% DVB, 0.45 mmol/g; DIC and HOBt (solid phase); EDC and HOBt (template coupling in solution)", "conditions": "for isolated yield / isolated mass / crude mass: whole synthesis; for conjugation yield: conjugation step"}, "[2]": {"assay": "peptide synthesis", "conditions": "conjugation step"}}}
{"substance": "Ac-(Gly-Pro-Nleu)6 --NH2", "values": [{"measurement": "isolated yield", "setting": "[1]; scale 0.45 mmol", "value": 47, "unit": "%"}]}
{"substance": "KTA--[Gly--(Gly--Pro--Hyp)3 --NH2 ]3", "values": [{"measurement": "isolated yield", "setting": "[1]", "value": 35, "unit": "%"}]}
{"substance": "Ac--(Gly--Pro--Hyp)5 --NH2", "values": [{"measurement": "isolated yield", "setting": "[1]", "value": 35, "unit": "%"}]}
{"substance": "KTA-[Gly-(Gly-Nleu-Pro)3 --NH2 ]3", "values": [{"measurement": "isolated yield", "setting": "[1]", "value": 6, "unit": "%"}, {"measurement": "isolated mass", "setting": "[1]; scale 0.35 mmol", "value": 20, "unit": "mg"}]}
{"substance": "(Gly-Pro-Nleu)3 --NH2", "values": [{"measurement": "isolated mass", "setting": "[1]; scale 0.2 mmol", "value": 90, "unit": "mg"}, {"measurement": "isolated yield", "setting": "[1]; scale 0.2 mmol", "value": 55, "unit": "%"}]}
{"substance": "TMA-[(Gly-Pro-Nleu)9 --NH2 ]3", "values": [{"measurement": "conjugation yield", "setting": "[1]", "value": 20, "unit": "%"}]}
{"substance": "Ac-(Gly-Nleu-Pro)3 --NH2", "values": [{"measurement": "isolated yield", "setting": "[1]; scale 0.35 mmol", "value": 47, "unit": "%"}]}
{"substance": "KTA-[Gly-Gly-Pro-Hyp-NH2 ]3", "values": [{"measurement": "isolated mass", "setting": "[1]; scale 0.3 mmol", "value": 55, "unit": "mg"}, {"measurement": "isolated yield", "setting": "[1]; scale 0.3 mmol", "value": 56, "unit": "% yield"}]}
{"substance": "(Gly-Nleu-Pro)9-NH2", "values": [{"measurement": "isolated mass", "setting": "[1]; scale 0.2 mmol", "value": 90, "unit": "mg"}, {"measurement": "isolated yield", "setting": "[1]; scale 0.2 mmol", "value": 55, "unit": "%"}]}
{"substance": "Ac--(Gly--Pro--Hyp)6 --NH2", "values": [{"measurement": "isolated yield", "setting": "[1]", "value": 39, "unit": "%"}]}
{"substance": "KTA-[Gly-(Gly-Pro-Nleu)3 --NH2 ]3", "values": [{"measurement": "isolated yield", "setting": "[1]", "value": 6, "unit": "%"}, {"measurement": "crude mass", "setting": "[1]; scale 0.45 mmol", "value": 255, "unit": "mg"}, {"measurement": "isolated mass", "setting": "[1]; scale 0.45 mmol", "value": 65, "unit": "mg"}]}
{"substance": "KTA--[Gly--(Gly--Pro--Hyp)5 --NH2 ]3", "values": [{"measurement": "isolated yield", "setting": "[1]", "value": 12, "unit": "%"}]}
{"substance": "KTA-[Gly-(Gly-Pro-Nleu)6 --NH2 ]3", "values": [{"measurement": "conjugation yield", "setting": "[2]", "value": 21, "unit": "%"}, {"measurement": "isolated yield", "setting": "[1]", "value": 14, "unit": "%"}, {"measurement": "crude mass", "setting": "[1]; scale 0.3 mmol", "value": 245, "unit": "mg"}]}
{"substance": "KTA-[Gly-(Gly-Nleu-Pro)6 --NH2 ]3", "values": [{"measurement": "isolated yield", "setting": "[1]", "value": 4.4, "unit": "%"}, {"measurement": "isolated mass", "setting": "[1]; scale 0.5 mmol", "value": 30, "unit": "mg"}]}
{"substance": "KTA-[Gly-Gly-Pro-Nleu-NH2 ]3", "values": [{"measurement": "conjugation yield", "setting": "[1]", "value": 80, "unit": "%"}]}
{"substance": "Ac-(Gly-Pro-Nleu)9 --NH2", "values": [{"measurement": "isolated yield", "setting": "[1]", "value": 29, "unit": "%"}]}
{"substance": "KTA-[Gly-(Gly-Pro-Nleu)9 --NH2 ]3", "values": [{"measurement": "conjugation yield", "setting": "[1]", "value": 10, "unit": "%"}]}
{"substance": "KTA-[Aha-(Gly-Pro-Nleu)6 --NH2 ]3", "values": [{"measurement": "isolated yield", "setting": "[1]", "value": 9, "unit": "%"}, {"measurement": "crude mass", "setting": "[1]; scale 0.45 mmol", "value": 200, "unit": "mg"}, {"measurement": "isolated mass", "setting": "[1]; scale 0.45 mmol", "value": 53, "unit": "mg"}]}
{"substance": "TMA-[Gly-(Gly-Pro-Nleu)6 --NH2 ]3", "values": [{"measurement": "isolated yield", "setting": "[1]", "value": 10, "unit": "%"}, {"measurement": "isolated mass", "setting": "[1]; scale 0.3 mmol", "value": 35, "unit": "mg"}]}
{"substance": "TMA-[Gly-Gly-Pro-Nleu-NH2 ]3", "values": [{"measurement": "conjugation yield", "setting": "[1]", "value": 38, "unit": "%"}]}
{"substance": "Ac--(Gly--Pro--Hyp)3 --NH2", "values": [{"measurement": "isolated yield", "setting": "[1]", "value": 42, "unit": "%"}]}
